Consider one molecule from article PMC4605734.

The experiment addresses T1, GST-megalin CT (GST fusion of the cytoplasmic tail of megalin) (UniProt P98164).
T1 sequence: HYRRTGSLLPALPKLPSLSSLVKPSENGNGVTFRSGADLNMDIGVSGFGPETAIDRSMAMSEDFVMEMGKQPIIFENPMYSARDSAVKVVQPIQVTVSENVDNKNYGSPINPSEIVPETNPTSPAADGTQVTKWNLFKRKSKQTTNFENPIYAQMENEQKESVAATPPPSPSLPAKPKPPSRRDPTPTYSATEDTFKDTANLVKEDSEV
Description: pull-down; about 100 ug GST-megalin CT (or GST) on glutathione-Sepharose mixed with clarified HKC-8 cell lysate (~7.5 mg/ml, 300 ul), 4°C, 60 min; pellet blotted for AS160; only the target purified.

No constants are given. Whether binding was seen depends on the method and setting. In cells and extracts the contact can be indirect. Some binding calls cover weakened binding; strength is not graded here. Where a sequence is shown, tags or fusion partners need not be part of it.

B1: Akt substrate 160kDa (AS160), endogenous in HKC-8 cells (protein, UniProt O60343 1-1298)
chain: MEPPSCIQDEPFPHPLEPEPGVSAQPGPGKPSDKRFRLWYVGGSCLDHRTTLPMLPWLMAEIRRRSQKPEAGGCGAPAAREVILVLSAPFLRCVPAPGAGASGGTSPSATQPNPAVFIFEHKAQHISRFIHNSHDLTYFAYLIKAQPDDPESQMACHVFRATDPSQVPDVISSIRQLSKAAMKEDAKPSKDNEDAFYNSQKFEVLYCGKVTVTHKKAPSSLIDDCMEKFSLHEQQRLKIQGEQRGPDPGEDLADLEVVVPGSPGDCLPEEADGTDTHLGLPAGASQPALTSSRVCFPERILEDSGFDEQQEFRSRCSSVTGVQRRVHEGSQKSQPRRRHASAPSHVQPSDSEKNRTMLFQVGRFEINLISPDTKSVVLEKNFKDISSCSQGIKHVDHFGFICRESPEPGLSQYICYVFQCASESLVDEVMLTLKQAFSTAAALQSAKTQIKLCEACPMHSLHKLCERIEGLYPPRAKLVIQRHLSSLTDNEQADIFERVQKMKPVSDQEENELVILHLRQLCEAKQKTHVHIGEGPSTISNSTIPENATSSGRFKLDILKNKAKRSLTSSLENIFSRGANRMRGRLGSVDSFERSNSLASEKDYSPGDSPPGTPPASPPSSAWQTFPEEDSDSPQFRRRAHTFSHPPSSTKRKLNLQDGRAQGVRSPLLRQSSSEQCSNLSSVRRMYKESNSSSSLPSLHTSFSAPSFTAPSFLKSFYQNSGRLSPQYENEIRQDTASESSDGEGRKRTSSTCSNESLSVGGTSVTPRRISWRQRIFLRVASPMNKSPSAMQQQDGLDRNELLPLSPLSPTMEEEPLVVFLSGEDDPEKIEERKKSKELRSLWRKAIHQQILLLRMEKENQKLEASRDELQSRKVKLDYEEVGACQKEVLITWDKKLLNCRAKIRCDMEDIHTLLKEGVPKSRRGEIWQFLALQYRLRHRLPNKQQPPDISYKELLKQLTAQQHAILVDLGRTFPTHPYFSVQLGPGQLSLFNLLKAYSLLDKEVGYCQGISFVAGVLLLHMSEEQAFEMLKFLMYDLGFRKQYRPDMMSLQIQMYQLSRLLHDYHRDLYNHLEENEISPSLYAAPWFLTLFASQFSLGFVARVFDIIFLQGTEVIFKVALSLLSSQETLIMECESFENIVEFLKNTLPDMNTSEMEKIITQVFEMDISKQLHAYEVEYHVLQDELQESSYSCEDSETLEKLERANSQLKRQNMDLLEKLQVAHTKIQALESNLENLLTRETKMKSLIRTLEQEKMAYQKTVEQLRKLLPADALVNCDLLLRDLNCNPNNKAKIGNKP
In the case of B1, the binding result was “binds”.
